{"source": "paper doi:10.1101/2024.10.21.619395", "molecular_target": "T1, G protein-coupled bile acid receptor 1 (GPBAR1), full length, with N-terminal FLAG and BRIL (human), Q8TDU6", "T1 chain": "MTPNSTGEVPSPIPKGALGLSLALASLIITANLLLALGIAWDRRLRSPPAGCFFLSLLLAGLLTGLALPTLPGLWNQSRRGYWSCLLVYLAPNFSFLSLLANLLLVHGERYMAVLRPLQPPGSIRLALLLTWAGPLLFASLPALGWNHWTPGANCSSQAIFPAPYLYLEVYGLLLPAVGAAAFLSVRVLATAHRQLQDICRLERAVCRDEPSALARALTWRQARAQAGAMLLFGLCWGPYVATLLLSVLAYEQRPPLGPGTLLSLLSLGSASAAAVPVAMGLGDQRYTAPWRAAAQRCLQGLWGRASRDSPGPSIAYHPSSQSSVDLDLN", "test": "mass photometry", "settings": "remark: other sources report otherwise", "note": "Results are given in words; binding and its absence hold for the method and conditions named. Where a sequence is shown, tags or fusion partners need not be part of it.", "data": [{"binder": "G protein-coupled bile acid receptor 1 (GPBAR1), full length, with N-terminal FLAG and BRIL, Q8TDU6 1-330 (receptor) MTPNSTGEVPSPIPKGALGLSLALASLIITANLLLALGIAWDRRLRSPPAGCFFLSLLLAGLLTGLALPTLPGLWNQSRRGYWSCLLVYLAPNFSFLSLLANLLLVHGERYMAVLRPLQPPGSIRLALLLTWAGPLLFASLPALGWNHWTPGANCSSQAIFPAPYLYLEVYGLLLPAVGAAAFLSVRVLATAHRQLQDICRLERAVCRDEPSALARALTWRQARAQAGAMLLFGLCWGPYVATLLLSVLAYEQRPPLGPGTLLSLLSLGSASAAAVPVAMGLGDQRYTAPWRAAAQRCLQGLWGRASRDSPGPSIAYHPSSQSSVDLDLN", "values": [{"measurement": "binding", "value": "no binding"}]}]}
